Measured values from PMC6941865.
No constants are given. Whether binding was seen depends on the method and setting. In cells and extracts the contact can be indirect. Here binding means that the protein was enriched with, or labelled near, the bait; the list need not be complete.

Chains of the proteins cited; added tags and fusions are not shown. Lines headed by an entry give the natural chain unless they say otherwise; changes in a name come on top.
UniProt Q233X5: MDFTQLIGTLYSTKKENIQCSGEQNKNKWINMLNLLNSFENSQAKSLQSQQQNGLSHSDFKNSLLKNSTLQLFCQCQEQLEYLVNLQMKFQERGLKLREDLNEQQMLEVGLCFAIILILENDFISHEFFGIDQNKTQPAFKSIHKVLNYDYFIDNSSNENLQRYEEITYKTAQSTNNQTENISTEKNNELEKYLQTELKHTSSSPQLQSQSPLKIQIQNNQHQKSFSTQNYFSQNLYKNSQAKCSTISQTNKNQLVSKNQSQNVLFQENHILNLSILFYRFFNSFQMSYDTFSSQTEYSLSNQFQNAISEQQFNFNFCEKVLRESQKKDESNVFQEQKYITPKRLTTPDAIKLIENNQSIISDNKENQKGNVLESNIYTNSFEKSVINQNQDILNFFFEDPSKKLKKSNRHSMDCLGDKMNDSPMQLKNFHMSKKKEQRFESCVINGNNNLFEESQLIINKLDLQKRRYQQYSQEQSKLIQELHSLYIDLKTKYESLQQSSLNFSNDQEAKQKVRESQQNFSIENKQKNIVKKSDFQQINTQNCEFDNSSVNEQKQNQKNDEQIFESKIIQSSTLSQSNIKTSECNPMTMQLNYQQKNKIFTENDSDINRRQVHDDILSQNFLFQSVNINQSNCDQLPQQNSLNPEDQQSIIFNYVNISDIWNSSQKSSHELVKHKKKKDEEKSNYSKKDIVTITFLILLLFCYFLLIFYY
UniProt Q24CC5: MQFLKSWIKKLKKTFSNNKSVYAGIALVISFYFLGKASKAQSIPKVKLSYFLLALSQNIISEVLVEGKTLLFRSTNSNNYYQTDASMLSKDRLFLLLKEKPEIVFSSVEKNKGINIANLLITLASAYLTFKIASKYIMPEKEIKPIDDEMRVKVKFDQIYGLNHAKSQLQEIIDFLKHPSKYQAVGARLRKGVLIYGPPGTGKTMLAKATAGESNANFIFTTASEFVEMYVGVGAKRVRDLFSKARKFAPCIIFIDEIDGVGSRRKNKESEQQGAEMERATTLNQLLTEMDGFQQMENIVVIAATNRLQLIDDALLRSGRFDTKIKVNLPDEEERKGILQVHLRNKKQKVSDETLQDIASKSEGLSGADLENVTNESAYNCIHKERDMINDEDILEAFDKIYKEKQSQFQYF
UniProt I7MDW5: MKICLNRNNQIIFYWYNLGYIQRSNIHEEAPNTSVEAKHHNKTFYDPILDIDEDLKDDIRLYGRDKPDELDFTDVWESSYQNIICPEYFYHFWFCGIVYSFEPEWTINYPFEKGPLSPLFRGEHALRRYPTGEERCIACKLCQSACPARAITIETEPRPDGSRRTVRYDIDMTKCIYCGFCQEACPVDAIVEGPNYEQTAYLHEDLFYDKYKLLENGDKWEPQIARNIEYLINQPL
UniProt Q240S0: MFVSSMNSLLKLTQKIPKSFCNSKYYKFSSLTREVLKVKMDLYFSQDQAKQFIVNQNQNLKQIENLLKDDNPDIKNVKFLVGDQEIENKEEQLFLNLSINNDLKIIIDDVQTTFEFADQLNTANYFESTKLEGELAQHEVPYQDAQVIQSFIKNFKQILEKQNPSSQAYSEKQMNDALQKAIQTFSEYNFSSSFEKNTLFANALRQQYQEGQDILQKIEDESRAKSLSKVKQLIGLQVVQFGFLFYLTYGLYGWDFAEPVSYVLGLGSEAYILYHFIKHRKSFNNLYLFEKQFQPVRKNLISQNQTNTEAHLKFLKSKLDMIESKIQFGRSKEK
UniProt I7M8A6: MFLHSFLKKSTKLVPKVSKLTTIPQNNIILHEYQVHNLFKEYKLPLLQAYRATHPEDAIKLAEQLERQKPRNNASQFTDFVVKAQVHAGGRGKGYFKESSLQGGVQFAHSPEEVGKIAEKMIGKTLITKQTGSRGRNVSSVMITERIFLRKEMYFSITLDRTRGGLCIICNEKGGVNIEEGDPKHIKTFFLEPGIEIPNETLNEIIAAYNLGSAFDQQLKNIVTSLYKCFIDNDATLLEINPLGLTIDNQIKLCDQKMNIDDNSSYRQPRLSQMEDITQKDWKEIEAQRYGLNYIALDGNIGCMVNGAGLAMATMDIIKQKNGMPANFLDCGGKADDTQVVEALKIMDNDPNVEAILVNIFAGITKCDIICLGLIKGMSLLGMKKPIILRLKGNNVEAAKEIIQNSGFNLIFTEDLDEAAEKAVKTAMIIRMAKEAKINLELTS
UniProt I7LTL6: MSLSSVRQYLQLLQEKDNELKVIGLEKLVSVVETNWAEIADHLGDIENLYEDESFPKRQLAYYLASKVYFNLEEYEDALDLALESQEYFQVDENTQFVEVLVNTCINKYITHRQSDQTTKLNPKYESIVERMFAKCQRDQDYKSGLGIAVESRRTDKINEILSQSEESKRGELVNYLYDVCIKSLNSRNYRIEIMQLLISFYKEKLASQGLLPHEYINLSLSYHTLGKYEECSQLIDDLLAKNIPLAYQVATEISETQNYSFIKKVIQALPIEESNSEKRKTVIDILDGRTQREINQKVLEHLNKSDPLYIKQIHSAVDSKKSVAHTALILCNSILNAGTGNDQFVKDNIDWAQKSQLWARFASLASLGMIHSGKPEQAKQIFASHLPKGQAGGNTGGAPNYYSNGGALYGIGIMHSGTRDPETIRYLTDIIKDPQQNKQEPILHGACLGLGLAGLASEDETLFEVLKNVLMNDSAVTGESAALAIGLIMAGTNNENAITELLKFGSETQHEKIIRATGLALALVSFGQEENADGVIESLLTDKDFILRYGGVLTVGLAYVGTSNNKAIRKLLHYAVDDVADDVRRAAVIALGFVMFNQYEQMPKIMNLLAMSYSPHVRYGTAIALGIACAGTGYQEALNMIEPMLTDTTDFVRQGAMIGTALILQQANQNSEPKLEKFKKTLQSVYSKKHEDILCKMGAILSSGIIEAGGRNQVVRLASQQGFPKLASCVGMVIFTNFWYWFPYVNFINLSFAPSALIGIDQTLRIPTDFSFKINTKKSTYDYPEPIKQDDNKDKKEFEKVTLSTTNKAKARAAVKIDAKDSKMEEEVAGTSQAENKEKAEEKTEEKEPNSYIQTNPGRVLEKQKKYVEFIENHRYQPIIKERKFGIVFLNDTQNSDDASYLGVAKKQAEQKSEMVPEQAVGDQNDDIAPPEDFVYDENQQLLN
UniProt I7M913: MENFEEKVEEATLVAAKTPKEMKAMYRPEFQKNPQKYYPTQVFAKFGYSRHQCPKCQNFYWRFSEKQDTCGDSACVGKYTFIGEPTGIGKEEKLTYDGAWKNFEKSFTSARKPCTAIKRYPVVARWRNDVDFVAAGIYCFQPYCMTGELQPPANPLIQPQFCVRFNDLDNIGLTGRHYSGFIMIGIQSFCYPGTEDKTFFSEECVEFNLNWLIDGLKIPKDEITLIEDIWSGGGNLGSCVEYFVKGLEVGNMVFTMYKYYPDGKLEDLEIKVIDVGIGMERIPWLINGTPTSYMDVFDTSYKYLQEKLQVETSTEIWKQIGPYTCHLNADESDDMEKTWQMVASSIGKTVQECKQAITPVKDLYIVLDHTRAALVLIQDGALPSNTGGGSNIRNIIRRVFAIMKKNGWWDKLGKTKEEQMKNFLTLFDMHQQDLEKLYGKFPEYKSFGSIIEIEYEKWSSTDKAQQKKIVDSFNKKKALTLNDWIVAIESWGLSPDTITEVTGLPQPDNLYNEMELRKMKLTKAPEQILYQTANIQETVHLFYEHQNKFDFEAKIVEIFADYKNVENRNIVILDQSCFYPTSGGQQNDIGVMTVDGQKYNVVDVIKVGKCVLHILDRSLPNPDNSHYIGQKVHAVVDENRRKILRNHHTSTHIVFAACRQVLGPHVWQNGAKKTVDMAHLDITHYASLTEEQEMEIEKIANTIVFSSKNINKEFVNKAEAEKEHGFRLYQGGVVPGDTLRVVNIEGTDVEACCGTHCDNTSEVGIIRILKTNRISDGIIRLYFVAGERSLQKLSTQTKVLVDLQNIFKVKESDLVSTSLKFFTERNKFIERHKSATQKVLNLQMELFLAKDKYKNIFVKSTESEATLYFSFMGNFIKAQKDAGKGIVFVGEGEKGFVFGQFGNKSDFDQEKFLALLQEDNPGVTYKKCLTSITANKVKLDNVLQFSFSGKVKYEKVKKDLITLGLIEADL
UniProt Q22GC6: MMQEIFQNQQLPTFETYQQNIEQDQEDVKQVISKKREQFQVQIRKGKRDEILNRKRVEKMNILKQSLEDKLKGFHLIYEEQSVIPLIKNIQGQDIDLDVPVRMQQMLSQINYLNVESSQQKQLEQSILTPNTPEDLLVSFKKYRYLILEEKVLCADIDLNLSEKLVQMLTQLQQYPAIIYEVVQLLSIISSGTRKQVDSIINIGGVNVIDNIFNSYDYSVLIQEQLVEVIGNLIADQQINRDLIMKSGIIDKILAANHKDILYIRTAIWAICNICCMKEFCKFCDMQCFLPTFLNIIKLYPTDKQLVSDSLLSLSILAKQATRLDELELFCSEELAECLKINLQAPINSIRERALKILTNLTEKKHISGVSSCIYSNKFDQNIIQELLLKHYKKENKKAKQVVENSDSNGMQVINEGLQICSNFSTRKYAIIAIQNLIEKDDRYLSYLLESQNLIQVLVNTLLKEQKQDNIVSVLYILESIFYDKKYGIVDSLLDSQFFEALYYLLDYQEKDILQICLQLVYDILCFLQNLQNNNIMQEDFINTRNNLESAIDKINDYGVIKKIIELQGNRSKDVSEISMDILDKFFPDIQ
UniProt Q248H6: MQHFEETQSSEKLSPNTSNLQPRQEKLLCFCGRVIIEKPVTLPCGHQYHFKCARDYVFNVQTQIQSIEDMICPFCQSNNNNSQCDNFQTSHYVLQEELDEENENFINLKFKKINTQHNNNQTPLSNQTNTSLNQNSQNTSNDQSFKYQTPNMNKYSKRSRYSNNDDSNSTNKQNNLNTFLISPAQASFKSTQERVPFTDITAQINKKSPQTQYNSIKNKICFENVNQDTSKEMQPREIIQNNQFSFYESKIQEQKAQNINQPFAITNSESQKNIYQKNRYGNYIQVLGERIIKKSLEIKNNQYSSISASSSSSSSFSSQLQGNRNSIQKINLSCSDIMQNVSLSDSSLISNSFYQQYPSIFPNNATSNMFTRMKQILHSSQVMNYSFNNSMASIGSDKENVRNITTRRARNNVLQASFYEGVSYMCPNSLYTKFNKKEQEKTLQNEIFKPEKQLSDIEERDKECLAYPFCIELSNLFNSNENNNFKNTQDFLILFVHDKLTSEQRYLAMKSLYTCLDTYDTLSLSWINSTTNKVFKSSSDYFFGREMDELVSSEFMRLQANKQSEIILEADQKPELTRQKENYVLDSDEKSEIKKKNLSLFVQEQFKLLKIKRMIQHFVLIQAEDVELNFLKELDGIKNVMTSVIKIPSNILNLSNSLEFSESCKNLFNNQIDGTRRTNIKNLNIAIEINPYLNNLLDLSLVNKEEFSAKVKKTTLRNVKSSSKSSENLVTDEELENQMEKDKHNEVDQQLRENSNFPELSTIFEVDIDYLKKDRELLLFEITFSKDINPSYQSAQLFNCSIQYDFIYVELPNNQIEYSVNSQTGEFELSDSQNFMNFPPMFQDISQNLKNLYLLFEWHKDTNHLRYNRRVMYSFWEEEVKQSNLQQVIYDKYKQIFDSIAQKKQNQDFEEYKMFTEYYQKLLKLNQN
UniProt Q22WD2: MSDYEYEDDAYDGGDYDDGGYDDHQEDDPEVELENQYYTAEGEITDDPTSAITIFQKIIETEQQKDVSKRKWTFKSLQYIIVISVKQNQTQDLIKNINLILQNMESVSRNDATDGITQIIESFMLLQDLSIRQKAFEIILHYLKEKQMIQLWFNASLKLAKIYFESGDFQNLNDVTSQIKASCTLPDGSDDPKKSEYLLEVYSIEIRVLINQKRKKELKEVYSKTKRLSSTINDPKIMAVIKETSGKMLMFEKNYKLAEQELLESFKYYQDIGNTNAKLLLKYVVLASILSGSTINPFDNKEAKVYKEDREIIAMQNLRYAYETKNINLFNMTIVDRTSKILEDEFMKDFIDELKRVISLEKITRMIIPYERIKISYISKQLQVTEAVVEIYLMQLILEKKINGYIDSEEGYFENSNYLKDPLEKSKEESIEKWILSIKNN
UniProt I7MHK8: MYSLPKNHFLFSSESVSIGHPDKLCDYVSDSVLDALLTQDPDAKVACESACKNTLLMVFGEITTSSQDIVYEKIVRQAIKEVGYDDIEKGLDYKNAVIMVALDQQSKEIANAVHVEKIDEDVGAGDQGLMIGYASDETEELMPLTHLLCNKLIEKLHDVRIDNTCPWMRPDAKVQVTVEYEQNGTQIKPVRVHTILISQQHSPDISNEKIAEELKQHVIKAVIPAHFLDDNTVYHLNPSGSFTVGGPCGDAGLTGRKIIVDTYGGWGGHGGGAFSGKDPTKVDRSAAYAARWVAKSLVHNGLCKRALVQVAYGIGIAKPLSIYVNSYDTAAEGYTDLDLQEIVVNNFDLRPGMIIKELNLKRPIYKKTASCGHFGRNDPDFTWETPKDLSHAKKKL

Each substance was assayed against mCherry-tagged Semi1 (selected haploid micronucleus 1) (T. thermophila) (UniProt Q233X5) (assay: affinity purification with mass spectrometry; interaction partners of mCherry-Semi1 co-immunoprecipitated from T. thermophila cells and identified by MS; cells expressing the free mCherry tag as control; SAINTexpress analysis (p < 0.05)).
“ATP-dependent metalloprotease FtsH TTHERM_01079260 (from UniProt Q24CC5)” was tested, and the binding was “binds”.
With “NADH-ubiquinone oxidoreductase 1 chain putative TTHERM_00294640 (from UniProt I7MDW5)” the binding was “binds”.
With “Transmembrane protein putative TTHERM_00624630 (from UniProt Q240S0)” the binding was “binds”.
In the case of “Succinyl-CoA ligase [GDP-forming] subunit beta TTHERM_00437600 (from UniProt I7M8A6)”, the binding is reported as “binds”.
With “Rpn2 (RPN1 26S proteasome regulatory complex subunit RPN2) (from UniProt I7LTL6)” the binding was “binds”.
“Ars2 (ARS2 alanine-tRNA ligase/alanyl-tRNA synthetase protein) (from UniProt I7M913)” was tested, and the binding was “binds”.
For “Ima5 (IMA5 import in subunit alpha putative) (from UniProt Q22GC6)”, the binding was “binds”.
For “Zfr3 (Zinc Finger-Related 3) (from UniProt Q248H6)”, the binding was “binds”.
With “PCI-domain protein TTHERM_00158020 (from UniProt Q22WD2)” the binding was “binds”.
With “S-adenosylmethionine synthase protein TTHERM_00444470 (from UniProt I7MHK8)” the binding was “binds”.
